These are yes or no findings as the source states them, for the method shown. Some binding calls cover weakened binding; strength is not graded here.
Target: full-length human kinesin-1 heavy chain (KIF5B-GFP-SNAPf) (human) (UniProt P33176)
Test: co-IP; purified proteins, 10 µg each, premixed on ice; KIF5B-GFP-SNAPf with TRAK1 1-360 or TRAK2 1-360 on GFP-Trap beads; MB buffer (30 mM HEPES, 5 mM MgSO4, 1 mM EGTA, pH 7.0) with 100 mM NaCl, 1 mg/ml BSA; 2 h on ice; with or without 10 nM MAP7; in Fig. 5b Miro1 1-592 added; both purified

Chains of the proteins cited; added tags and fusions are not shown.
UniProt P33176: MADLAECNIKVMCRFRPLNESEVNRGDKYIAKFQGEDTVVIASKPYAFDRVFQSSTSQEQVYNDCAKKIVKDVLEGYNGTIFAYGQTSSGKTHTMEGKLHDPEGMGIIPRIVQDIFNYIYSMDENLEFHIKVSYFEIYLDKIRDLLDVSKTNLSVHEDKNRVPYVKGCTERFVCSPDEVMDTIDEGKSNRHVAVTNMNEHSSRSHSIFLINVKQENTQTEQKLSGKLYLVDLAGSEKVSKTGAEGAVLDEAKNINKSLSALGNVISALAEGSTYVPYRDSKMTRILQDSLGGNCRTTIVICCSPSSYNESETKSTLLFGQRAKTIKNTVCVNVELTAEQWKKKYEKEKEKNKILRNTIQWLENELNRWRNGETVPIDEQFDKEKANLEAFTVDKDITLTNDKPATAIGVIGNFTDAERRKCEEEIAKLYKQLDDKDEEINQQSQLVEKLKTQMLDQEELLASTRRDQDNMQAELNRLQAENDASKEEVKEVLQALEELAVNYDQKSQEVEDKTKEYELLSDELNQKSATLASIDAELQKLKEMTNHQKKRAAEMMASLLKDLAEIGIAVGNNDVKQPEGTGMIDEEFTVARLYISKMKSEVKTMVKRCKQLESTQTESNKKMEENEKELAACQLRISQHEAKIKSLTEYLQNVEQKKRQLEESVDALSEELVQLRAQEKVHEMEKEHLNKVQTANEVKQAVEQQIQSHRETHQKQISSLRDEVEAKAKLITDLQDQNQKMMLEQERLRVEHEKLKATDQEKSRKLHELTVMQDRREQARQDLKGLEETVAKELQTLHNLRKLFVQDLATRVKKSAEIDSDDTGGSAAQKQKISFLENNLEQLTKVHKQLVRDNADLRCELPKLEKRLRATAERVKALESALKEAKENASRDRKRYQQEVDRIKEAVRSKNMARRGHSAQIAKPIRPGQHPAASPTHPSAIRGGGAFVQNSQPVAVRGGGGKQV

binding: binds weakly
B1: TRAK2^1–360 (domain or fragment, UniProt O60296 1-360)
chain: MSQSQNAIFTSPTGEENLMNSNHRDSESITDVCSNEDLPEVELVSLLEEQLPQYRLKVDTLFLYENQDWTQSPHQRQHASDALSPVLAEETFRYMILGTDRVEQMTKTYNDIDMVTHLLAERDRDLELAARIGQALLKRNHVLSEQNESLEEQLGQAFDQVNQLQHELCKKDELLRIVSIASEESETDSSCSTPLRFNESFSLSQGLLQLEMLQEKLKELEEENMALRSKACHIKTETVTYEEKEQQLVSDCVKELRETNAQMSRMTEELSGKSDELIRYQEELSSLLSQIVDLQHKLKEHVIEKEELKLHLQASKDAQRQLTMELHELQDRNMECLGMLHESQEEIKELRSRSGPTAHL
modifications: LD555 or LD655 dye on the SNAP-tag in motility assays
